Data published in US8476297B2, “TRP-M8 receptor ligands and their use in treatments” (Amgen Inc., priority 2007, dated 2013).
Some entries share one result that the patent states for a list of compounds.

Sequences of proteins named here, by UniProt entry; tags and fusion partners are left off.
UniProt Q7Z2W7, whole entry: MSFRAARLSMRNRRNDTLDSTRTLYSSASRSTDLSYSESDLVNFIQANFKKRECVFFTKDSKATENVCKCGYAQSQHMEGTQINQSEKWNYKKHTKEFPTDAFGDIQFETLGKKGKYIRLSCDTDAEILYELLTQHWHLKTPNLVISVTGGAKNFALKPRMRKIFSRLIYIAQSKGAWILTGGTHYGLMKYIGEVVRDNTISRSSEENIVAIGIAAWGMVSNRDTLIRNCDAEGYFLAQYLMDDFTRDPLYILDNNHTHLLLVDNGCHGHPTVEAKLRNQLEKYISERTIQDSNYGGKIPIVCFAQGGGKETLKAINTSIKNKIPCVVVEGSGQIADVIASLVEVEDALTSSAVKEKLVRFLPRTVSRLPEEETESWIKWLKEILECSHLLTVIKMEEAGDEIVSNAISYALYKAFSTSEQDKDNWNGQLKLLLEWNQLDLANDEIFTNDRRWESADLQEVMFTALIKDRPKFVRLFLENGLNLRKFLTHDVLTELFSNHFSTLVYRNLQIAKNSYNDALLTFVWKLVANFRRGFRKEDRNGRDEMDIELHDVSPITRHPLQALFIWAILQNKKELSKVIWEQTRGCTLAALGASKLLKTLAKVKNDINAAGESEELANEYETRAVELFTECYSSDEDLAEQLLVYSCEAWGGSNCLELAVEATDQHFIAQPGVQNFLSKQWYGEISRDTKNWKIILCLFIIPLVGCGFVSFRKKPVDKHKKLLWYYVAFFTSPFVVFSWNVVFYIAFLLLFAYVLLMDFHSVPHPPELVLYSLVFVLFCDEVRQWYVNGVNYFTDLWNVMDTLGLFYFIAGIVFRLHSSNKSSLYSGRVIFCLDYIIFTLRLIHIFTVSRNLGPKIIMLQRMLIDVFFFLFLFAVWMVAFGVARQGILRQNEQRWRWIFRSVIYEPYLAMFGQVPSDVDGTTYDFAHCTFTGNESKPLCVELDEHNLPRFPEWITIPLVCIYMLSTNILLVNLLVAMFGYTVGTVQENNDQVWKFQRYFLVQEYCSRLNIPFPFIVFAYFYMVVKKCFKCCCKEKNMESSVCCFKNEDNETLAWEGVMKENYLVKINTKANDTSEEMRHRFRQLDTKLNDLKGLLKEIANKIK

The compounds below were run against T1, human TRPM8 (Homo sapiens, UniProt Q7Z2W7) (assay: Luminescence readout assay for measuring intracellular calcium (aequorin), cold buffer activation). Settings: stable CHO cells expressing human TRPM8 and aequorin; antagonist added 1 min prior to addition of cold buffer (<10° C.).
T1 construct: expressed in transfected cells; host or cells: CHO cells (T-REx tetracycline-inducible system, Invitrogen), co-transfected with pcDNA3.1 aequorin
Type: cell-based

IC50, < 5 µM:
Cn1nc(C(=O)N2CCc3ccccc3[C@H]2c2ccc(C(F)(F)F)cc2)c2ccccc21 [Example 48, (R)-(1-Methyl-1H-indazol-3-yl)(1-(4-(trifluoromethyl)phenyl)-3,4-dihydroisoquinolin-2(1H)-yl)methanone]
Cc1ncoc1C(=O)N1CCc2ccccc2[C@H]1c1ccc(C(F)(F)F)cc1 [Example 49, (R)-(4-Methyloxazol-5-yl)(1-(4-(trifluoromethyl)phenyl)-3,4-dihydroisoquinolin-2(1H)-yl)methanone]
CC(C)(C)C(=O)N1CCc2ccccc2[C@H]1c1ccc(C(F)(F)F)cc1 [Example 50, (R)-2,2-Dimethyl-1-(1-(4-(trifluoromethyl)phenyl)-3,4-dihydroisoquinolin-2(1H)-yl)propan-l-one]
O=C(c1ccco1)N1CCc2ccccc2[C@H]1c1ccc(C(F)(F)F)cc1 [Example 51, (R)-Furan-2-yl(1-(4-(trifluoromethyl)phenyl)-3,4-dihydroisoquinolin-2(1H)-yl)methanone]
O=C(c1ccno1)N1CCc2ccccc2[C@H]1c1ccc(C(F)(F)F)cc1 [Example 52, (R)-Isoxazol-5-yl(1-(4-(trifluoromethyl)phenyl)-3,4-dihydroisoquinolin-2(1H)-yl)methanone]
Cc1cnn(CC(=O)N2CCc3ccccc3[C@H]2c2ccc(C(F)(F)F)cc2)c1 [Example 53, (R)-2-(4-Methyl-1H-pyrazol-1-yl)-1-(1-(4-(trifluoromethyl)phenyl)-3,4-dihydroisoquinolin-2(1H)-yl)ethanone]
Cn1cc(C(=O)N2CCc3ccccc3[C@H]2c2ccc(C(F)(F)F)cc2)cn1 [Example 54, (R)-(1-Methyl-1H-pyrazol-4-yl)(1-(4-(trifluoromethyl)phenyl)-3,4-dihydroisoquinolin-2(1H)-yl)methanone]
O=C(c1cccnc1)N1CCc2ccccc2[C@H]1c1ccc(C(F)(F)F)cc1 [Example 55, (R)-Pyridin-3-yl(1-(4-(trifluoromethyl)phenyl)-3,4-dihydroisoquinolin-2(1H)-yl)methanone]
Cn1cncc1C(=O)N1CCc2ccccc2[C@H]1c1ccc(C(F)(F)F)cc1 [Example 56, (R)-(1-Methyl-1H-imidazol-5-yl)(1-(4-(trifluoromethyl)phenyl)-3,4-dihydroisoquinolin-2(1H)-yl)methanone]
Cc1nnsc1C(=O)N1CCc2ccccc2[C@H]1c1ccc(C(F)(F)F)cc1 [Example 57, (R)-(4-Methyl-1,2,3-thiadiazol-5-yl)(1-(4-(trifluoromethyl)phenyl)-3,4-dihydroisoquinolin-2(1H)-yl)methanone]
O=C(c1ccc(-n2cccn2)cc1)N1CCc2ccccc2[C@H]1c1ccc(C(F)(F)F)cc1 [Example 58, (R)-(4-(1H-Pyrazol-1-yl)phenyl)(1-(4-(trifluoromethyl)phenyl)-3,4-dihydroisoquinolin-2(1H)-yl)methanone]
O=C(c1ccncc1)N1CCc2ccccc2[C@H]1c1ccc(C(F)(F)F)cc1 [Example 59, (R)-Pyridin-4-yl(1-(4-(trifluoromethyl)phenyl)-3,4-dihydroisoquinolin-2(1H)-yl)methanone]
O=C(c1ccc(F)cc1)N1CCc2ccccc2[C@H]1c1ccc(C(F)(F)F)cc1 [Example 60, (R)-(4-Fluorophenyl)(1-(4-(trifluoromethyl)phenyl)-3,4-dihydroisoquinolin-2(1H)-yl)methanone]
CC(C)(C)CC(=O)N1CCc2ccccc2[C@H]1c1ccc(C(F)(F)F)cc1 [Example 61, (R)-3,3-Dimethyl-1-(1-(4-(trifluoromethyl)phenyl)-3,4-dihydroisoquinolin-2(1H)-yl)butan-l-one]
O=C(C1CCCC1)N1CCc2ccccc2[C@H]1c1ccc(C(F)(F)F)cc1 [Example 62, (R)-Cyclopentyl(1-(4-(trifluoromethyl)phenyl)-3,4-dihydroisoquinolin-2(1H)-yl)methanone]
O=C(c1ccccn1)N1CCc2ccccc2[C@H]1c1ccc(C(F)(F)F)cc1 [Example 63, (R)-Pyridin-2-yl(1-(4-(trifluoromethyl)phenyl)-3,4-dihydroisoquinolin-2(1H)-yl)methanone]
Cn1nc2ccccc2c1C(=O)N1CCc2ccccc2[C@H]1c1ccc(C(F)(F)F)cc1 [Example 64, (R)-(2-Methyl-2H-indazol-3-yl)(1-(4-(trifluoromethyl)phenyl)-3,4-dihydroisoquinolin-2(1H)-yl)methanone]
Cc1oncc1C(=O)N1CCc2ccccc2[C@H]1c1ccc(C(F)(F)F)cc1 [Example 65, (R)-(5-Methylisoxazol-4-yl)(1-(4-(trifluoromethyl)phenyl)-3,4-dihydroisoquinolin-2(1H)-yl)methanone]
O=C(Nc1ccc(F)cc1)N1CCc2ccccc2C1c1ccc(F)c(F)c1 (stereo not drawn) [Example 70, 1-(3,4-Difluorophenyl)-N-(4-fluorophenyl)-3,4-dihydroisoquinoline-2(1H)-carboxamide]
CC(C)NC(=O)N1CCc2ccccc2C1c1ccc(C(F)(F)F)c(F)c1 (stereo not drawn) [Example 71, 1-(3-Fluoro-4-(trifluoromethyl)phenyl)-N-isopropyl-3,4-dihydroisoquinoline-2(1H)-carboxamide]
O=C(Nc1ccc(F)cc1)N1CCc2ccccc2C1c1ccc(C(F)(F)F)c(F)c1 (stereo not drawn) [Example 72, 1-(3-Fluoro-4-(trifluoromethyl)phenyl)-N-(4-fluorophenyl)-3,4-dihydroisoquinoline-2(1H)-carboxamide]
O=C(c1ccc2nonc2c1)N1CCc2ccccc2[C@H]1c1ccc(C(F)(F)F)cc1 [Example 87, (R)-Benzo[c][1,2,5]oxadiazol-5-yl(1-(4-(trifluoromethyl)phenyl)-3,4-dihydro-isoquinolin-2(1H)-yl)methanone]
O=C(Oc1ccc([N+](=O)[O-])cc1)N1CCc2ccccc2[C@H]1c1ccc(C(F)(F)F)cc1 [Example 88, (R)-4-Nitrophenyl 1-(4-(trifluoromethyl)phenyl)-3,4-dihydroisoquinoline-2(1H)-carboxylate]
N#Cc1ccc(NC(=O)N2CCc3ccccc3[C@H]2c2ccc(C(F)(F)F)cc2)c(F)c1 [Example 89, (R)—N-(4-Cyano-2-fluorophenyl)-1-(4-(trifluoromethyl)phenyl)-3,4-dihydro-isoquinoline-2(1H)-carboxamide]
N#Cc1ccc(NC(=O)N2CCc3ccccc3[C@H]2c2ccc(C(F)(F)F)cc2)cc1F [Example 90, (R)—N-(4-Cyano-3-fluorophenyl)-1-(4-(trifluoromethyl)phenyl)-3,4-dihydro-isoquinoline-2(1H)-carboxamide]
Cc1cc(C#N)ccc1NC(=O)N1CCc2ccccc2[C@H]1c1ccc(C(F)(F)F)cc1 [Example 91, (R)—N-(4-Cyano-2-methylphenyl)-1-(4-(trifluoromethyl)phenyl)-3,4-dihydro-isoquinoline-2(1H)-carboxamide]
O=C(Nc1ccc(C(F)(F)F)nc1)N1CCc2ccccc2[C@H]1c1ccc(C(F)(F)F)cc1 [Example 92, (R)-1-(4-(Trifluoromethyl)phenyl)-N-(6-(trifluoromethyl)pyridin-3-yl)-3,4-dihydroisoquinoline-2(1H)-carboxamide]
N#Cc1cc(NC(=O)N2CCc3ccccc3[C@H]2c2ccc(C(F)(F)F)cc2)ccc1F [Example 93, (R)—N-(3-Cyano-4-fluorophenyl)-1-(4-(trifluoromethyl)phenyl)-3,4-dihydro-isoquinoline-2(1H)-carboxamide]
N#Cc1cc(NC(=O)N2CCc3ccccc3[C@H]2c2ccc(C(F)(F)F)cc2)cnc1OCC(F)(F)F [Example 94, (R)—N-(5-cyano-6-(2,2,2-trifluoroethoxy)pyridin-3-yl)-1-(4-(trifluoro-methyl)phenyl)-3,4-dihydroisoquinoline-2(1H)-carboxamide]
CN(C)C(=O)c1ccc(NC(=O)N2CCc3ccccc3[C@H]2c2ccc(C(F)(F)F)cc2)cc1 [Example 95, (R)—N-(4-(Dimethylcarbamoyl)phenyl)-1-(4-(trifluoromethyl)phenyl)-3,4-dihydroisoquinoline-2(1H)-carboxamide]
N#Cc1ccc(NC(=O)N2CCc3ccccc3[C@H]2c2ccc(C(F)(F)F)cc2)cn1 [Example 96, (R)—N-(6-Cyanopyridin-3-yl)-1-(4-(trifluoromethyl)phenyl)-3,4-dihydroisoquinoline-2(1H)-carboxamide]
O=C(Nc1ccc(Cl)nc1)N1CCc2ccccc2[C@H]1c1ccc(C(F)(F)F)cc1 [Example 97, (R)—N-(6-chloropyridin-3-yl)-1-(4-(trifluoromethyl)phenyl)-3,4-dihydroisoquinoline-2(1H)-carboxamide]
COCCNC(=O)N1CCc2ccccc2[C@H]1c1ccc(C(F)(F)F)cc1 [Example 98, (R)—N-(2-Methoxyethyl)-1-(4-(trifluoromethyl)phenyl)-3,4-dihydroisoquinoline-2(1H)-carboxamide]
CCCCNC(=O)N1CCc2ccccc2[C@H]1c1ccc(C(F)(F)F)cc1 [Example 100, (R)—N-Butyl-1-(4-(trifluoromethyl)phenyl)-3,4-dihydroisoquinoline-2(1H)-carboxamide]
O=C(NCC(F)(F)F)N1CCc2ccccc2[C@H]1c1ccc(C(F)(F)F)cc1 [Example 101, (R)—N-(2,2,2-Trifluoroethyl)-1-(4-(trifluoromethyl)phenyl)-3,4-dihydroisoquinoline-2(1H)-carboxamide]
O=C(Nc1ccccc1C(F)(F)F)N1CCc2ccccc2[C@H]1c1ccc(C(F)(F)F)cc1 [Example 104, (R)-N-(2-(trifluoromethyl)phenyl)-1-(4-(trifluoromethyl)phenyl)-3,4-dihydroisoquinoline-2(1H)-carboxamide]
